{"source": "patent US20060258711A1", "about": "“Treatment of drug abuse” (Wyeth, priority 2005, published 2006)", "tested_on": "rats", "experiment": "Open field test of locomotor activity with or without cocaine", "type": "in vivo, rat", "conditions": "3 mg/kg ip, 5-minute open field test 1 hour after dosing, FIG. 1", "protocol": "Rats were dosed either with vehicle or with cocaine in the presence or absence of Compound 1 (0.1 mg/kg. sc). One hour after dosing (i.p. & s.c.), rats were put in a open field, where distance moved and zones crossed were recorded by the ethovision program.\nAnimals were brought to the lab room 1 hour before the start of the experiment. Rats were injected with compound(s) 1 hour before being placed in the open field. Rats were then placed in open field, and the test lasted for five minutes.", "note": "At least one compound was matched to its structure with a doubt left.", "data": [{"compound": "COC(=O)[C@H]1[C@@H](OC(=O)c2ccccc2)C[C@@H]2CC[C@H]1N2C", "note": "[cocaine]", "values": [{"measurement": "distance moved", "value": "increase"}, {"measurement": "number of zones crossed", "value": "increase"}]}]}
